Assay results taken from PubChem BioAssay AID504444 (National Center for Advancing Translational Sciences (NCATS), 2011).
In all, about 360,000 compounds went through this assay and about 7,500 (2.1%) were called active. This list was built around the results that the source calls inconclusive (neither active nor inactive); the mix of calls is not that of the screen. Calls come from the whole dose curve; as a rule, active = well fitted inhibition curve with a large enough effect; inconclusive = small, poorly fitted or top-dose-only effect, or effect the other way; inactive = flat fitted curve, though single readings scatter. Potencies of inconclusive entries are doubtful fits and often do not repeat.

Assay: Nrf2 qHTS screen for inhibitors; note: nearly all actives have a fitted effect of over 60% in size
Conditions: A549 ARE-Fluc reporter, luciferase luminescence, 18-24 h; series mostly up to 46 µM
Summary of the method: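 A549 ARE_Fluc cells (5000/well, 5% FBS OPTI-MEM) pre-incubated 2 h, then treated with compounds 18-24 h at 37C/5% CO2 in concentration-response. CellTiter-Fluor viability read first; BugLite luciferase luminescence after 15 min at room temperature gives Nrf2 activity.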
Potency is the fitted concentration of half-maximal effect.

Row | SMILES | Potency
1 | O=C(Nc1ccc(F)cc1)Nc1ccc2snnc2c1 | active: 23.1 µM
2 | CCc1cccc(NC(=O)Cn2ncc3c([nH]c4ccc(C)cc43)c2=O)c1 | inconclusive: 18.4 µM [activator, partial curve]
3 | COc1ccc(S(=O)(=O)N2CCC(C(=O)N3CCc4ccccc4C3)CC2)cc1Cl | inconclusive: 29.1 µM [falling, single point]
4 | CC(=O)Nc1ccc(S(=O)(=O)N2CCN(c3cc(C)nc4ccccc34)CC2)cc1 | inconclusive: 11.6 µM [falling, partial curve, poor fit]
5 | COc1ccc(Cl)cc1C1CC(=O)Nc2cc3c(cc21)OCCO3 (configuration not stated) | inconclusive: 32.6 µM [falling, single point]
6 | CCCCNc1sc(S(=O)(=O)CCC)nc1S(=O)(=O)c1ccc(C)cc1 | inactive
7 | CC1=C(C(=O)OC2CCCCC2)C(c2ccccc2F)NC(=O)N1 (configuration not stated) | inconclusive: 25.9 µM [falling, single point]
8 | O=C(CSc1ncnc2sc(-c3ccccc3)cc12)NC1CCS(=O)(=O)C1 (configuration not stated) | inconclusive: 23.1 µM [falling, partial curve, poor fit]
9 | O=C(CCc1nnc(-c2ccc(-c3ccccc3)cc2)o1)N1CCCCC1 | inactive
10 | O=C(CSc1ccc(Cl)cc1)N1N=CCC1c1ccccc1 (configuration not stated) | inconclusive: 14.6 µM [falling, partial curve]
11 | CC(C)c1ccc(NC2CCCN(C(=O)c3ccccc3-c3ncc[nH]3)C2)cc1 (configuration not stated) | inconclusive: 29.1 µM [falling, single point]
12 | O=C(Cn1c(SCc2ccccc2F)nc2cccnc21)Nc1ccc(F)c(Cl)c1 | inconclusive: 32.6 µM [falling, single point]
13 | Cn1c(/C(C#N)=C(\O)c2ccc(S(=O)(=O)N3CCCCC3)cc2)nc2ccccc21 | inconclusive: 2.91 µM [falling, partial curve]
14 | CC(C)N(C(=O)[C@H]1C[C@H](CC(=O)NCCC2=CCCCC2)C(=O)N2CCc3c([nH]c4ccc(Cl)cc34)[C@]12C)C(C)C | active: 20.6 µM
15 | O=C(NCc1ccc(F)cc1)c1ccc(CS(=O)(=O)Cc2ccccc2F)o1 | inconclusive: 13 µM [falling, partial curve]
16 | CCOc1ccc(NCc2nnc(SCc3ccc(Cl)cc3)n2-c2ccccc2)cc1 | inconclusive: 29.1 µM [falling, single point]
17 | N#CN=c1snc(-c2ccccc2Cl)n1-c1ccc(F)cc1 | inconclusive: 10.3 µM [activator, partial curve, poor fit]
18 | CCc1ccc(S(=O)(=O)NCc2ccc(N3CCN(C)CC3)cc2)cc1 | inconclusive: 9.2 µM [falling, partial curve, poor fit]
19 | COc1ccc(-c2ccc(CCC(=O)O)n2CC(=O)Nc2cccc(Cl)c2C)cc1 | inactive
20 | c1csc(C(c2nnnn2C2CCCC2)N2CCCC3(CCCCC3)C2)c1 (configuration not stated) | inconclusive: 29.1 µM [falling, single point]
21 | CC(=O)c1cccc(Nc2nn(-c3ccc(OC(F)(F)F)cc3)nc2C(C)=O)c1 | inconclusive: 25.9 µM [falling, single point]
22 | C=CCNCCCCOc1cccc(Br)c1 | inconclusive: 18.4 µM [activator, partial curve]
23 | COc1ccc(CNC(=O)CCc2c(C)nc3nc(CNC(=O)OC(C)(C)C)nn3c2C)cc1 | inactive
24 | Cn1cc(C(=O)NCCc2ccccc2)c(=O)c2cc(S(=O)(=O)N3CCCCCC3)ccc21 | inactive

Looked up by structure from the list above:
Row | SMILES | Potency
4 | CC(=O)Nc1ccc(S(=O)(=O)N2CCN(c3cc(C)nc4ccccc34)CC2)cc1 | inconclusive: 11.6 µM [falling, partial curve, poor fit]
11 | CC(C)c1ccc(NC2CCCN(C(=O)c3ccccc3-c3ncc[nH]3)C2)cc1 (configuration not stated) | inconclusive: 29.1 µM [falling, single point]
6 | CCCCNc1sc(S(=O)(=O)CCC)nc1S(=O)(=O)c1ccc(C)cc1 | inactive
12 | O=C(Cn1c(SCc2ccccc2F)nc2cccnc21)Nc1ccc(F)c(Cl)c1 | inconclusive: 32.6 µM [falling, single point]
24 | Cn1cc(C(=O)NCCc2ccccc2)c(=O)c2cc(S(=O)(=O)N3CCCCCC3)ccc21 | inactive
23 | COc1ccc(CNC(=O)CCc2c(C)nc3nc(CNC(=O)OC(C)(C)C)nn3c2C)cc1 | inactive
1 | O=C(Nc1ccc(F)cc1)Nc1ccc2snnc2c1 | active: 23.1 µM

Later entries:

Row | SMILES | Potency
25 | COc1ccccc1-c1noc(-c2ccc(NCc3cccnc3)c([N+](=O)[O-])c2)n1 | inactive
26 | C/C(=N\NC(=O)CNC(=O)C(c1ccccc1)c1ccccc1)c1ccc(C(C)(C)C)cc1 | inconclusive: 23.1 µM [falling, single point]
27 | C=CCCn1c(Cl)c(C#N)sc1=O | inactive
28 | CN(CC(=O)O)S(=O)(=O)/C=C/c1ccccc1 | inconclusive: 4.61 µM [activator, full curve, poor fit]
29 | CC(C)c1ccc(-c2nnc(N)s2)cc1 | inconclusive: 0.82 µM [activator, full curve, poor fit]
30 | COc1ccc(C2/C(=C(\O)c3cccc(OC)c3)C(=O)C(=O)N2c2ccccn2)cc1 (configuration not stated) | inactive
31 | O=C(O)C(CO)N=Cc1c(O)c2ccccc2oc1=O (configuration not stated) | active: 6.51 µM
32 | Cc1ncsc1C(=O)N1N=C2/C(=C/c3ccccc3)CCCC2C1c1ccccc1 (configuration not stated) | inactive
33 | COc1ccc(-c2csc(NC(=O)CN3C(=O)C4CCCCC4C3=O)n2)c(OC)c1 (configuration not stated) | inconclusive: 11.6 µM [falling, partial curve, poor fit]
34 | CN(C)c1ccc(/C=C/c2cc[n+](C)cc2)cc1 | active: 4.11 µM
35 | NC(=O)C1Cc2ccccc2CN1C(=O)c1nn(Cc2ccccc2)c(=O)c2ccccc12 (configuration not stated) | inactive
36 | Cc1cc(OCc2cc(C(=O)N3CCC(Oc4cccnc4)CC3)no2)cc(C)c1Cl | inconclusive: 23.1 µM [falling, single point]
37 | O=Nc1c(O)n(Cc2ccc(Cl)cc2)c2ccccc12 | inactive
38 | O=C(c1cc(-c2ccc(Br)cc2)on1)N1CCOCC1 | inconclusive: 0.366 µM [activator, full curve]
39 | CN(CC(=O)Nc1cccc(F)c1)C(=O)c1ccc(-c2cccc(C(F)(F)F)c2)o1 | inconclusive: 20.6 µM [falling, single point]
40 | O=C1CN(C(=O)Nc2ccccc2Cl)C(c2ccccc2)c2c(sc3c2CCCC3)N1 (configuration not stated) | inconclusive: 29.1 µM [falling, single point]
41 | Cc1nn(-c2ccccc2)c2c1N(CCCC(=O)NCc1ccccc1)C(=O)CS2 | inconclusive: 29.1 µM [falling, single point]
42 | CN(c1ccccc1)c1nc(C#N)nc(N2CCOCC2)n1 | active: 8.2 µM
43 | COc1ccc(-c2cc(C(=O)NCCc3ccc(OC)c(OC)c3)c3ccccc3n2)cc1 | inactive
44 | CCOc1ccccc1N1CC(O)=C(c2nc3ccccc3s2)C1=N | inactive
45 | COc1ccc(NC(=O)C(C)Sc2cc(-c3ccccc3)nc(C)n2)cc1Cl (configuration not stated) | active: 20.6 µM
46 | CN1CCN(C(=O)CCCN2C(=O)/C(=C/c3cccc(Br)c3)SC2=S)CC1 | inconclusive: 16.4 µM [falling, single point]
47 | COc1ccc(N2CCN(C(=O)c3cc4c(s3)CCCCC4)CC2)cc1 | inconclusive: 29.1 µM [falling, single point]
48 | O=C1c2ccccc2-c2onc3ccc(NCc4ccco4)c1c23 | inactive

Row | SMILES | Potency
49 | COc1ccc(CNC(=O)CCn2c(=O)oc3ccccc32)cc1 | inactive
50 | Fc1ccccc1C1c2[nH]c3ccccc3c2CCN1Cc1ccoc1 (configuration not stated) | inconclusive: 29.1 µM [falling, single point]
51 | CCN(CC)CCNC(=O)C1c2cc(OC)c(OC)cc2C(=O)N2CCc3ccccc3C12 (configuration not stated) | inactive
52 | Cc1ccccc1-c1cccc([C@@H]2C[C@H]3[C@H](CON3C)CN2S(=O)(=O)c2ccccc2C)c1 | inconclusive: 25.9 µM [falling, single point]
53 | O=C(/C=C/c1ccc(Br)cc1)c1ccc(NC2=NCCCS2)cc1 | inconclusive: 20.6 µM [falling, single point]
54 | CCc1cc2c(cc3c(=O)n(CC(=O)NC4CCCCC4)ncn32)s1 | inactive
55 | COc1ccccc1CNCC(=O)Nc1ccc(N(C)C)cc1 | inconclusive: 13 µM [activator, partial curve, poor fit]
56 | Cc1cccnc1NC(=O)c1sc2ccccc2c1Cl | inconclusive: 13 µM [activator, partial curve]
57 | Cc1ccc(OCC(=O)Nc2ccc3oc(=O)ccc3c2)cc1C | inconclusive: 18.4 µM [falling, single point]
58 | CC(O)Cn1ccccc1=N (configuration not stated) | inactive
59 | Cc1cc(C)cc(NC(=O)C(=O)NCC(c2cccnc2)N2CCN(c3ccccc3)CC2)c1 (configuration not stated) | inactive
60 | CCc1nc2sc3c(=O)[nH]cnc3c2c2c1CSC(C)(C)C2 | inconclusive: 29.1 µM [falling, single point]
61 | COc1cccc(N2CCN(C(=O)c3ccc4nc(N5CCCCC5)sc4c3)CC2)c1 | inconclusive: 1.64 µM [activator, full curve]
62 | O=c1[nH]c(C(F)(F)F)nc2ccc3ccccc3c12 | inconclusive: 20.6 µM [activator, single point]
63 | O=C(NC1CCCCC1)N(Cc1ccc(F)cc1)Cc1nc2ccccc2c(=O)[nH]1 | inconclusive: 7.31 µM [falling, partial curve]
64 | CCN(CC)S(=O)(=O)c1ccc(/C=C/C(=O)Nc2cccc(F)c2)cc1 | inconclusive: 23.1 µM [falling, single point]
65 | O=C(COc1ccc(Cl)cc1)NNC(=S)NCc1ccccc1 | inactive
66 | Oc1ccc(-c2cccc(-c3ccc(O)cc3)c2)cc1 | inconclusive: 29.1 µM [falling, single point]
67 | Cc1nn(Cc2ccc(Cl)cc2Cl)c(C)c1NC(=O)c1sc2ccccc2c1Cl | inactive
68 | Nc1nnc2cc(Cl)ccc2n1 | inconclusive: 2.31 µM [falling, full curve, poor fit]
69 | CCCCOc1cccc(C2C(C(=O)c3ccc(C)o3)=C(O)C(=O)N2c2nnc(C)s2)c1 (configuration not stated) | inconclusive: 18.4 µM [falling, single point]
70 | COc1nc(-c2ccc(Cl)cc2)ccc1-c1noc(-c2cccs2)n1 | inconclusive: 14.6 µM [falling, single point]
71 | COc1ccc(CCNC(=O)CC2SC(N)=NC2=O)cc1OC (configuration not stated) | inactive
72 | CCn1c(SC(C)C(=O)N2CCOCC2)nc2sc(C)c(C)c2c1=O (configuration not stated) | inconclusive: 29.1 µM [falling, single point]
